Test results: patent US10696661B2, “Compounds” (Exonate Limited, priority 2015, dated 2020)
The match of structure and compound is tentative.

Test system: laser-induced choroidal neovascularisation (CNV)
Test: Laser-induced choroidal neovascularisation (CNV) in mice, topical eye drops
Settings: mouse, dose response trial

Structure (SMILES): O=C(Nc1cc(C(F)(F)F)ccc1N1CCN(Cc2ccccn2)CC1)c1ccc(-c2ccncc2)o1
- lowest dose at which effective as eye drop: 2 µg/mL
